Data from PMC5114622, “In vivo protein interaction network analysis reveals porin-localized antibiotic inactivation in Acinetobacter baumannii strain AB5075” (Nature Communications, 2016).
These are yes or no findings as the source states them, for the method shown. Binding seen in cells or lysates may run through a third protein. A result given as binding can be weak or reduced; the word gives no strength.

Protein sequences, listed by entry. Tags and fused reporters are not part of them. Lines headed by an entry give the natural chain unless they say otherwise; changes in a name come on top. Residues count along the entry.
UniProt V5VFJ0: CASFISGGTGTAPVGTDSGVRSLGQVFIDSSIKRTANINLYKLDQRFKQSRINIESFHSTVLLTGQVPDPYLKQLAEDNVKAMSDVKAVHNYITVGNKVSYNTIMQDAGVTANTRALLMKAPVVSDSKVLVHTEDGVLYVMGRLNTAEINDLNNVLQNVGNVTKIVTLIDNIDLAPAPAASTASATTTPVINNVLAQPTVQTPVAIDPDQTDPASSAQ
UniProt Q9L4P2, residues 18-273: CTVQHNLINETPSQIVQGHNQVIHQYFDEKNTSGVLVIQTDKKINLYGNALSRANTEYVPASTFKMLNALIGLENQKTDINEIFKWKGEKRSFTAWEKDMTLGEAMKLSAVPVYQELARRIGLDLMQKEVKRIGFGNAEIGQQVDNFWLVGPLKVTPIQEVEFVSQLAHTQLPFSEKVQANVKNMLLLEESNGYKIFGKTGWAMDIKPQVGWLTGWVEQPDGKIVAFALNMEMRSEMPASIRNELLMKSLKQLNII

Key:
Assay in all cases: cross-linking; in vivo cross-linking of intact A. baumannii AB5075 cells with the PIR cross-linker BDP-NHP (500 mM Na2HPO4 pH 7.4, 150 mM NaCl, room temperature), trypsin digest, avidin enrichment, LC-MS (ReACT); cross-linked peptide pairs identified
[1] = molecular target: haemolysin-like protein ABUW_2845 (Acinetobacter baumannii AB5075 (endogenous in AB5075 cells)) (UniProt V5VFJ0)
[2] = molecular target: lipoprotein ABUW_3571 (Acinetobacter baumannii AB5075 (endogenous in AB5075 cells))
[3] = molecular target: haemolysin-like protein ABUW_2554 (Acinetobacter baumannii AB5075 (endogenous in AB5075 cells))

Measured: binding

β-lactamase Oxa-23 (from UniProt Q9L4P2 18-273) (enzyme)
binds: all assays above
